Here are results for 58 molecules from PubChem BioAssay AID2685 (National Center for Advancing Translational Sciences (NCATS), 2010).

A short description of this experiment: qHTS Assay for Lipid Storage Modulators in Drosophila S3 Cells.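 On cell number change: cells counted by Cell Tracker Red CMTPX staining in the red channel.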 Conditions: BODIPY lipid droplet fluorescence, 18-24 h; for cell number change: measured here: cell count max response, cells fed with added oleic acid. Summed up:
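Drosophila S3 cells got compounds at several concentrations plus oleic acid (400 uM solution). Laser-scanning cytometry with 488 nm excitation read lipid droplets at 500-530 nm and cells at 575-640 nm. Percent activity was relative to 20 uM Triacsin C.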

Where [1] appears, read: measured here: lipid fluorescence (Fed channel) AC50, cells fed with added oleic acid.
[2] abbreviates: measured here: cell number channel AC50, cells fed with added oleic acid.

Usually AC50 stands for the concentration at which the activity in the assay is half-maximal. A high value points to activity only at high concentration.

The list shows a part of the results. These are further read-outs of the screen, such as a control signal, another cell line or another target. No call is given for them. Compounds called inactive in the main read-out are mostly missing here. Words in brackets tell the shape of the fitted curve; partial curves, single points and poor fits give uncertain potencies.

Take `CCOC(=O)c1[nH]c2cc3c(cc2c1NC(=O)CN1CCN(CCO)CC1)OCO3`: the cell number change was found to be 17.2%. Further, under setting [1], the AC50 was 4.11 µM [rising, full curve, poor fit]. With `COc1cc(OC)nc(NC(=O)COC(=O)C2CCCCC2)n1`, the cell number change was 12.7%. Consider `COc1ccc(S(=O)(=O)NCc2cc(=O)n(C)c(=O)n2C)cc1F`, for which the cell number change is 3.58%. Besides, the AC50 under setting [1] was 0.651 µM [rising, full curve]. Take `CCOCCCn1c(SC(C(=O)Nc2cc(C)ccc2C)c2ccccc2)nnc1-c1ccc(Cl)cc1` (stereo not given): the cell number change was 15%. Also, the AC50 under setting [1] was 0.231 µM [rising, full curve]. For `CC1(C)CC(=O)C2=C(C1)N1CCCCC1CC2=O` (stereo not given), the cell number change was 24%. Moreover, under setting [1], the AC50 is 14.6 µM [rising, partial curve, poor fit]. Turning to `Nc1nc(Cl)nc2ncn(Cc3ccccc3)c12`, the cell number change worked out at 23.3%.

As for `COc1ccc(C)c(NC(=O)C2CC(=O)NC3=C2C(=O)CCC3)c1` (stereo not given), under setting [2], the AC50 was 0.731 µM [falling, single point]. As to `Cc1occc(=O)c1OCc1ccccc1`, the cell number change is -18.5%. In addition, the AC50 under setting [1] was 3.66 µM [falling, single point]. Consider `Cc1ccc2[nH]c3c(NCCN4CCOCC4)ncnc3c2c1`, for which the AC50 is, setting by setting: under setting [2], 2.31 µM [falling, partial curve, poor fit]; under setting [1], 3.26 µM [falling, partial curve]. Take `O=C(CCCN1C(=O)/C(=C\c2cccs2)SC1=S)Nc1ccc(O)cc1C(=O)O`: the cell number change was 45.2%. In addition, the AC50 under setting [2] is 29.1 µM [rising, single point]. The AC50 under setting [1] is 29.1 µM [rising, single point]. `CS(=O)(=O)c1ccc2nc(NC(=O)c3ccccc3Br)sc2c1`: the cell number change is -31%. In addition, the AC50 under setting [2] was 20.6 µM [falling, single point].

On to `Cn1c(=O)c2c(ncn2CC(=O)OCC(=O)NNC(=O)c2ccc(Cl)cc2)n(C)c1=O`, for which the cell number change is -0.13%. Take `Cn1c2c(c(=O)n(C)c1=O)[C@@]1(C(=O)Nc3ccccc31)C(C#N)=C(N)O2`: the cell number change is -67.8%. The AC50 under setting [2] was 11.6 µM [falling, partial curve]. Under setting [1], the AC50 is 13 µM [falling, partial curve]. For the molecule `c1ccc2c(-c3nnc(SCc4cn5ccccc5n4)o3)c[nH]c2c1`, the cell number change is 88.3%. The AC50 under setting [2] is 6.51 µM [rising, partial curve].

For `CCC(C)NC(=O)Cn1cnc2sc(C)c(S(=O)(=O)N3CCCCC3)c2c1=O` (stereo not given), the cell number change amounted to 15.8%. In addition, under setting [1], the AC50 is 3.26 µM [rising, partial curve, poor fit].

Consider `O=C(Nc1ccc(N2CCN(C(=O)c3ccco3)CC2)cc1)c1cc(Br)ccc1Cl`, for which the cell number change is -19.6%. For the same molecule, the AC50 under setting [1] was 0.82 µM [falling, single point].

As for `COC(=O)C1=CN(c2cc(C)cc(C)c2)C=C(C(=O)OC)C1c1ccc(OC)c(O)c1`, the cell number change was -8.33%. The AC50 under setting [1] is 6.51 µM [rising, single point].

For `CCN(CC)C(=O)c1ccc(CS(=O)(=O)c2ccc(OC)cc2)o1`, the cell number change is -4.65%. In addition, under setting [1], the AC50 is 0.651 µM [rising, full curve, poor fit]. In the case of `O=C(O)C1CCN(C(=O)c2ccccc2C(=O)N2CCC(C(=O)O)CC2)CC1`, the cell number change was -94.9%. Moreover, the AC50 under setting [2] is 23.1 µM [falling, partial curve]. The AC50 under setting [1] was 23.1 µM [falling, partial curve]. For the molecule `CCC(C)c1ccc(NC(=S)N2CCN(C(=O)C3CCCO3)CC2)cc1` (stereo not given), the cell number change was -1.39%. `CC(C)(C)n1ncc2c(=O)n(CC(=O)N3CCCC3)cnc21`: the cell number change is -1.04%. Further, the AC50 under setting [1] was 1.46 µM [falling, full curve, poor fit]. On to `CCc1cccc(C)c1NC(=O)C(c1ccc(O)cc1)N1CCC1=O` (stereo not given), for which the cell number change is -0.795%. Under setting [1], the AC50 was 0.92 µM [falling, single point]. For `CCOC(=O)C1=C(N2CCCCC2)c2cc3c(n2C1=O)CCCC3`, the cell number change is 6.63%. The AC50 under setting [1] is 0.082 µM [rising, full curve, poor fit]. In the case of `CC1C(=O)Nc2ccc(S(=O)(=O)N3CCc4ccccc4C3)cc2NC1=O` (stereo not given), the cell number change is -2.84%. For the same molecule, the AC50 under setting [1] was 0.58 µM [falling, single point]. As to `O=C(Oc1ccc(OC(=O)c2ccco2)c(S(=O)(=O)c2ccc(Cl)cc2)c1)c1ccco1`, the cell number change was 8.93%. Besides, under setting [2], the concentration at half-maximal activity (AC50) was 3.66 µM [falling, single point].

For `Cc1cccc(N(CC(=O)NC(C)C)C(=O)CCC(=O)Nc2nccs2)c1`, the cell number change stood at 4.72%. Also, the AC50 under setting [1] was 6.51 µM [rising, single point]. Take `Cc1ccc(C(=O)CCC(=O)N(C)CC(=O)Nc2ccccc2Br)cc1`: the cell number change was 27.3%. In addition, the AC50 under setting [1] is 8.2 µM [rising, partial curve]. Turning to `COc1cc(NC(=O)c2ccccc2[N+](=O)[O-])c(C(=O)O)cc1OC`, the cell number change came out at 14.7%. Further, the AC50 under setting [2] was 6.51 µM [falling, single point]. The AC50 under setting [1] was 6.51 µM [falling, partial curve, poor fit]. Take `Cn1cnc([N+](=O)[O-])c1Sc1nc2ccccc2[nH]1`: the cell number change is -29.2%. The AC50 under setting [1] is 0.116 µM [falling, full curve, poor fit]. Take `O=C(NC1CCCCC1)c1ccc(-c2cccc([N+](=O)[O-])c2)o1`: under setting [1], the AC50 is 29.1 µM [falling, single point]. On to `O=C(NCc1ccc(F)cc1)C1CCCN1C(=O)Nc1cccc(F)c1` (stereo not given), for which the cell number change came out at 25.5%. Further, the AC50 under setting [2] was 0.731 µM [rising, full curve, poor fit]. In addition, the AC50 under setting [1] is 29.1 µM [rising, single point]. Take `CC(C)c1cc(C(=O)NNC(=S)NCc2ccco2)c(O)c(C(C)C)c1`: the cell number change was -65.9%. For the same molecule, under setting [2], the AC50 was 13 µM [falling, partial curve, poor fit]. For the same molecule, the AC50 under setting [1] was 14.6 µM [falling, partial curve]. As to `O=C(COc1ccc2ccccc2c1)NNC(=O)c1ccccc1`, the cell number change was -1.9%. Besides, the AC50 under setting [1] was 6.51 µM [falling, single point]. Consider `Cc1c(C(=O)OCC(=O)NCCN2C(=O)CSC2=O)oc2c1ccc1ccccc12`, for which the cell number change was found to be 2.2%. The AC50 under setting [1] was 0.651 µM [rising, full curve]. As to `Cc1cccc(OCCNC(=O)c2cccc(Oc3ccc(C(F)(F)F)cc3[N+](=O)[O-])c2)c1`, the cell number change was -17.2%. Also, the AC50 under setting [1] was 5.8 µM [falling, partial curve].

Turning to `CCCSc1nc2cc(S(=O)(=O)N3CCOCC3)ccc2n1CC`, the cell number change was determined as 1.74%. For the same molecule, the AC50 under setting [2] was 6.51 µM [rising, single point]. In the case of `COc1ccc(S(=O)(=O)O/N=C2\CCSc3ccc(C)cc32)cc1`, the cell number change came out at 39.2%. Under setting [2], the AC50 was 0.0651 µM [rising, full curve, poor fit]. Besides, the AC50 under setting [1] is 0.116 µM [rising, full curve, poor fit]. For `COc1ccc(/C(C)=N/NC(=O)CNC(=O)c2ccco2)cc1`, the cell number change stood at 5.56%. In the case of `CCCCOc1cc(C(=O)OCCN(CC)CC)ccc1N`, the cell number change was 14.8%. Under setting [1], the AC50 was 4.11 µM [falling, single point]. As for `O=C(CCNS(=O)(=O)c1ccccc1)NCCCc1ccccc1`, the cell number change was determined as 2%. Turning to `O=C(/C(=C/O)N=Nc1ccccc1)c1ccco1`, the cell number change amounted to 49.8%. In addition, the AC50 under setting [2] is 0.00651 µM [rising, full curve, poor fit]. Under setting [1], the AC50 was 32.6 µM [rising, partial curve, poor fit]. `COc1ccccc1NC(=O)COc1ccc(/C=N/NC(=O)CSCc2cc(C)cc(C)c2)cc1`: the cell number change was 6.35%. Further, under setting [1], the AC50 is 2.31 µM [rising, partial curve]. For `COc1cc(C(=O)N=c2sc3c(C)ccc(OC)c3n2C)cc(OC)c1OC`, the cell number change came to 24.3%. Under setting [1], the AC50 was 0.00461 µM [rising, full curve, poor fit]. Regarding `COc1ccc(C(=O)N2CCN(c3ccc(NC(=O)c4cccnc4)cc3)CC2)cc1`, the cell number change is -37.6%. In addition, under setting [2], the AC50 was 29.1 µM [falling, single point]. Moreover, the AC50 under setting [1] is 29.1 µM [falling, single point]. Turning to `NC1=C(O)C(=O)C(c2ccccc2)O1` (stereo not given), the cell number change turned out to be 5.56%. Moreover, the AC50 under setting [2] was 1.64 µM [rising, partial curve, poor fit]. In the case of `COc1ccc(Cl)c(Cn2c(NCC(C)O)nc3c2c(=O)n(C)c(=O)n3C)c1` (stereo not given), the cell number change is -20.2%.

`CCOC(=O)[C@@H]1[C@H]2COc3ccc(Br)cc3[C@@H]2N2C(=O)N(c3ccc(F)cc3)C(=O)[C@]12C`: the cell number change was determined as 30.2%. Under setting [2], the AC50 was 29.1 µM [rising, partial curve, poor fit]. The AC50 under setting [1] was 29.1 µM [rising, single point]. As for `CCN(CC)C(=O)Cn1cc(S(=O)(=O)CC(=O)Nc2ccc(F)cc2F)c2ccccc21`, the cell number change was -3.24%. As to `CC(C)(C)C(=O)NCCN1C(=O)S/C(=C\c2ccc([N+](=O)[O-])cc2)C1=O`, the AC50 under setting [1] is 4.61 µM [falling, single point]. Consider `COc1ccc(NC(=O)C2CCN(S(=O)(=O)c3cn(C)nc3C)CC2)cc1`, for which the cell number change is 6.65%. Also, the AC50 under setting [1] was 29.1 µM [rising, single point].

For the molecule `Cc1cccc(CCN(C(=O)c2snc(C(N)=O)c2N)C(C(=O)NCC2CCCO2)c2ccc(F)cc2)c1` (stereo not given), the cell number change was -13.7%. In addition, the AC50 under setting [1] was 2.91 µM [falling, single point]. For `O=C(NCCO)c1ccc(CSc2nc3ccccc3[nH]2)cc1`, the cell number change turned out to be 63.4%. For the same molecule, the AC50 under setting [2] is 0.92 µM [rising, full curve]. Consider `CCCOC(=O)Cn1cnc2scc(-c3ccc(C)cc3)c2c1=O`, for which the cell number change is -1.92%. Moreover, the AC50 under setting [1] was 29.1 µM [falling, single point]. Turning to `COc1ccc(N(CC(O)CN2C(=O)NC(C)(C)C2=O)S(=O)(=O)c2ccc(C)cc2)cc1` (stereo not given), the cell number change is 35.5%. Moreover, the AC50 under setting [1] is 5.8 µM [falling, partial curve]. On to `CC1=CC(C)(C)NC(=S)N1c1cccc(C)c1`, for which the cell number change was -12.6%. Also, under setting [2], the AC50 was 0.00461 µM [falling, full curve, poor fit]. `Cc1nn(CCC#N)c(C)c1Oc1ccccc1O`: the cell number change was -18.8%. Moreover, the AC50 under setting [1] is 4.11 µM [falling, full curve].

Turning to `CN1C(=O)/C(=C2\SC(=S)N(CC3CCCO3)C2=O)c2ccccc21` (stereo not given), the cell number change is 7.96%. `CC1C/C(=N\Nc2ccc(S(N)(=O)=O)cc2[N+](=O)[O-])CC(C)(C)C1` (stereo not given): the cell number change was -59.7%. Moreover, the AC50 under setting [2] is 25.9 µM [falling, partial curve]. In addition, the AC50 under setting [1] is 29.1 µM [falling, single point].
